Results on 22 targets are retold here after the supplement of paper PMC12067093, “Discovery and optimisation of a covalent ligand for TRIM25 and its application to targeted protein ubiquitination” (Chemical Science, 2025).

Protein sequences, listed by entry. Tags and fused reporters are not part of them. Lines headed by an entry give the natural chain unless they say otherwise; changes in a name come on top.
UniProt Q7Z2T5: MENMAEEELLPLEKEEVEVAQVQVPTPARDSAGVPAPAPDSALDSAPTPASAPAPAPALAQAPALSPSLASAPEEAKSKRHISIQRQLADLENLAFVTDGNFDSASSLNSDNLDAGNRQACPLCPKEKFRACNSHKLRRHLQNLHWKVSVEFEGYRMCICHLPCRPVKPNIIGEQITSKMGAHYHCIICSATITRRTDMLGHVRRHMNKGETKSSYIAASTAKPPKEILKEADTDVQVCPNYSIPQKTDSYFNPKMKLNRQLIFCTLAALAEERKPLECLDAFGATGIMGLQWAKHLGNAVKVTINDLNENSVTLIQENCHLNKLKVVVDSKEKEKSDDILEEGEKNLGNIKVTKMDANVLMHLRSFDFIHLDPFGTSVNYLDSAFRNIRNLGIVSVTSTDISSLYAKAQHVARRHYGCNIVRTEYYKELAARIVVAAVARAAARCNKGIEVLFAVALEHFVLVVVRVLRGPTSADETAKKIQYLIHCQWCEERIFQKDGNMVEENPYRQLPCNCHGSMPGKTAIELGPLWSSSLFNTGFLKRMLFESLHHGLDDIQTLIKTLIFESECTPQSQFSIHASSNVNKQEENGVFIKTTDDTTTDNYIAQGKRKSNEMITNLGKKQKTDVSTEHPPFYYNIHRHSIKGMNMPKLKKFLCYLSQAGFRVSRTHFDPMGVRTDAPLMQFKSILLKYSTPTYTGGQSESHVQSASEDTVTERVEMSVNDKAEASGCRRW
UniProt Q14258, whole entry, looked up: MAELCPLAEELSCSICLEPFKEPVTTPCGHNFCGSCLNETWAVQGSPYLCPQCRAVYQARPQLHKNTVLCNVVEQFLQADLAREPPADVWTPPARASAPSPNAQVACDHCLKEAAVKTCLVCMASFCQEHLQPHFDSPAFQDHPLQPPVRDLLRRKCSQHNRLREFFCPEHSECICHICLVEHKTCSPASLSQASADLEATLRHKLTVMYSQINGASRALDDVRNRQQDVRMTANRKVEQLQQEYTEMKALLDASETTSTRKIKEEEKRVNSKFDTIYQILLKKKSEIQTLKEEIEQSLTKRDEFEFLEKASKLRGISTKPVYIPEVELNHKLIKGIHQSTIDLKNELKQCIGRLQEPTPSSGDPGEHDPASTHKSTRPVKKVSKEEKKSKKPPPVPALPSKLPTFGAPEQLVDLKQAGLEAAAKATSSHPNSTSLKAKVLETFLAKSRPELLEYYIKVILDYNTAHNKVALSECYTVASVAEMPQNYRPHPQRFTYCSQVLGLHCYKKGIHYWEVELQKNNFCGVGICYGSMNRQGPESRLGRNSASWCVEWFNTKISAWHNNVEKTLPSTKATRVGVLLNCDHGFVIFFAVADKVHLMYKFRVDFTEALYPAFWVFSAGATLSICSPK
UniProt Q9ULW0, whole entry, looked up: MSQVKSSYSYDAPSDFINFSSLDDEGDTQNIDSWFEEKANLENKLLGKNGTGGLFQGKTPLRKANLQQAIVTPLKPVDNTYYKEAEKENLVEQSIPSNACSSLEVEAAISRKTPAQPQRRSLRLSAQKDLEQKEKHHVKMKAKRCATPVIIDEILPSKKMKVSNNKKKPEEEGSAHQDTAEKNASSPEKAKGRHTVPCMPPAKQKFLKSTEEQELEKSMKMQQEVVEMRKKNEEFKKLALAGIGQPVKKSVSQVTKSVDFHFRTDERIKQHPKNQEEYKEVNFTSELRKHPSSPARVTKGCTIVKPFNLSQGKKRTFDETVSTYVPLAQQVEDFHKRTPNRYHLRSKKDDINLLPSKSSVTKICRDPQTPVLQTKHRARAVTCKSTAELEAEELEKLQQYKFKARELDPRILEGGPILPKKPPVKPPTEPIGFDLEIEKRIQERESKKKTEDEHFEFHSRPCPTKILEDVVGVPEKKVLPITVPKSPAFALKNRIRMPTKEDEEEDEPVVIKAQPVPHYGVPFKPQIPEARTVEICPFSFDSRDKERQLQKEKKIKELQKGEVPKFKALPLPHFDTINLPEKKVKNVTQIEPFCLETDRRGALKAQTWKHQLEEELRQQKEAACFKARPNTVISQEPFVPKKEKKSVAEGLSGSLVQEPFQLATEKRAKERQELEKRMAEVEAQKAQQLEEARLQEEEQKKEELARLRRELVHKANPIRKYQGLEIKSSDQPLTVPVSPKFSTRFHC
UniProt Q14669: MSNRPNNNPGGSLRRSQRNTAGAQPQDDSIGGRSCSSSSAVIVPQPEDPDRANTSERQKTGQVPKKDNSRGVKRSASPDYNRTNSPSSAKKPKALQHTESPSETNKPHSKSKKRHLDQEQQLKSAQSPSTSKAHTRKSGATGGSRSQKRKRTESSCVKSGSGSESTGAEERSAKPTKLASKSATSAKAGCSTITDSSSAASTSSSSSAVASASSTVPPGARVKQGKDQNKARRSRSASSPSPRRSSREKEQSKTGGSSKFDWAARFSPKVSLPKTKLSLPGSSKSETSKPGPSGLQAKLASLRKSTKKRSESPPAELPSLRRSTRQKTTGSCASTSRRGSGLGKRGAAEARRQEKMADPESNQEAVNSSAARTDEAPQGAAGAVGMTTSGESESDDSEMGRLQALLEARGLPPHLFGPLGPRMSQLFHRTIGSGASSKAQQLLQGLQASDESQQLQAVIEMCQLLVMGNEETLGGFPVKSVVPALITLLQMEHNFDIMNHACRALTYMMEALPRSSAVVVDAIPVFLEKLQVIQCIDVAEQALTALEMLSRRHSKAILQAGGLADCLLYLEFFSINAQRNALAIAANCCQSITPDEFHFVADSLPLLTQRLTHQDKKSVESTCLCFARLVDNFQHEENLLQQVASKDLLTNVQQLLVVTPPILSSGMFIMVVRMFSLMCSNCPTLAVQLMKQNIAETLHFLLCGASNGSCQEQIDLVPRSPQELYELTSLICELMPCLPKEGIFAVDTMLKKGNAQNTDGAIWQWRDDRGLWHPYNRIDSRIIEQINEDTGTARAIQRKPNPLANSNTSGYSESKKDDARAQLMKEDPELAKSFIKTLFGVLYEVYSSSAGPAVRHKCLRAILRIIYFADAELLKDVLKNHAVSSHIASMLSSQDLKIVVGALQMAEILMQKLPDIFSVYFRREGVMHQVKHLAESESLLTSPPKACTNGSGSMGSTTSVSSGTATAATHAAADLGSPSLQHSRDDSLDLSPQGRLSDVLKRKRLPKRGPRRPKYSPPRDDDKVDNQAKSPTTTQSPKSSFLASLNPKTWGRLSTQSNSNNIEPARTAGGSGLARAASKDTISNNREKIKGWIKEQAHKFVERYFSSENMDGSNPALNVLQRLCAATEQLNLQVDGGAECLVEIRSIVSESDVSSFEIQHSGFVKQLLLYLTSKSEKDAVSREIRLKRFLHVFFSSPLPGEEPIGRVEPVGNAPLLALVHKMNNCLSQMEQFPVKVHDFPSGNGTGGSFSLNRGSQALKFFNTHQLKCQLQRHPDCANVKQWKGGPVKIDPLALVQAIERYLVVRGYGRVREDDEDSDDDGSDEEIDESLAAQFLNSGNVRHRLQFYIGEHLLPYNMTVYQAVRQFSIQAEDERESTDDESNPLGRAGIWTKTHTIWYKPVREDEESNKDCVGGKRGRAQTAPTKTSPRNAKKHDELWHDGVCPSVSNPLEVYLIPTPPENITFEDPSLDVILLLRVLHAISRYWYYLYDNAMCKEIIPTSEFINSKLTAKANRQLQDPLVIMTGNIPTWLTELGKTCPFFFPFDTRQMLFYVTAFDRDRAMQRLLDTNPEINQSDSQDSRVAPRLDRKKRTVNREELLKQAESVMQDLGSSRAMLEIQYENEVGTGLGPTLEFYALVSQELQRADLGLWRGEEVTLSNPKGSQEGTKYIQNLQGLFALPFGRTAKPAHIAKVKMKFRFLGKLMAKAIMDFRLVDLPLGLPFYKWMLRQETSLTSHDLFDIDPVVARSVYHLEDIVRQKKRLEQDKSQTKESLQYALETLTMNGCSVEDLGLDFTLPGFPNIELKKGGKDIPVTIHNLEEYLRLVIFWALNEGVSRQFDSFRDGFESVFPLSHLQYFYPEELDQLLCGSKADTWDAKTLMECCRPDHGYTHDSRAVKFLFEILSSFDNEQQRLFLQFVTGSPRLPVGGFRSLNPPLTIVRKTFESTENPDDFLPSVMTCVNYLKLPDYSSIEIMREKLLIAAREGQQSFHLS
UniProt Q6Q0C0: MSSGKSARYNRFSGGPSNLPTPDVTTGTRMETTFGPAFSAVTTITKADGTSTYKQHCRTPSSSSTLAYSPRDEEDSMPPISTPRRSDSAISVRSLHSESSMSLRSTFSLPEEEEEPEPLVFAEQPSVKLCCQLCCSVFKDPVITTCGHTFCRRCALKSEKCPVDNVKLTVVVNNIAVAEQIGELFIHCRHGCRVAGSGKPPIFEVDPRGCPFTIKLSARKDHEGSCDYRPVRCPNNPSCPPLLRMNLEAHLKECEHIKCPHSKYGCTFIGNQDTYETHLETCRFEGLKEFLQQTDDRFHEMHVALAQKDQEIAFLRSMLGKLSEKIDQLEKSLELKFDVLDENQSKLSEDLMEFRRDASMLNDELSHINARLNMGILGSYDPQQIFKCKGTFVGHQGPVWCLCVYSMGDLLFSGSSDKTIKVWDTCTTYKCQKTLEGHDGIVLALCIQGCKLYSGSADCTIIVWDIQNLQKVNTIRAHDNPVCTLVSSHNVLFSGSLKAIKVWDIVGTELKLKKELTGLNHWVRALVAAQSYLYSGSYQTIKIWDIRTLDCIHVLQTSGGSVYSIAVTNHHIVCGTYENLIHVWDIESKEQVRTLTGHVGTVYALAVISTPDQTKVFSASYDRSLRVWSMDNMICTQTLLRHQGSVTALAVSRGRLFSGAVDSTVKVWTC
UniProt O14545: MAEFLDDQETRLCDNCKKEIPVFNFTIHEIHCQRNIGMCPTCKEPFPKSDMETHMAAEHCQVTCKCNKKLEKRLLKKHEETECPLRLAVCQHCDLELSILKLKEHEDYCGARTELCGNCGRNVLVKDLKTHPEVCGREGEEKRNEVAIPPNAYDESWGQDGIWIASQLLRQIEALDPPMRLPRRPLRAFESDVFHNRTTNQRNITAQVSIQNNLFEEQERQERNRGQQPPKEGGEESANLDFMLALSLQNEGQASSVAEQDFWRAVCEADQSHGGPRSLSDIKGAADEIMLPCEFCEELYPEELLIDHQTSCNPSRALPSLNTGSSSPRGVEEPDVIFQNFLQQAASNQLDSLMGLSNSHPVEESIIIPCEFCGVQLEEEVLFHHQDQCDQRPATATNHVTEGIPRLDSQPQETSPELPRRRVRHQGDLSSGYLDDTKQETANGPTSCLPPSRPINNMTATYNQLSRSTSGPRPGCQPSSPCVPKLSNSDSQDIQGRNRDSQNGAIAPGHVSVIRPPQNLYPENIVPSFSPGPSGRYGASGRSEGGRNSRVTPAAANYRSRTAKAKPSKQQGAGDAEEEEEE
UniProt Q9UPN9: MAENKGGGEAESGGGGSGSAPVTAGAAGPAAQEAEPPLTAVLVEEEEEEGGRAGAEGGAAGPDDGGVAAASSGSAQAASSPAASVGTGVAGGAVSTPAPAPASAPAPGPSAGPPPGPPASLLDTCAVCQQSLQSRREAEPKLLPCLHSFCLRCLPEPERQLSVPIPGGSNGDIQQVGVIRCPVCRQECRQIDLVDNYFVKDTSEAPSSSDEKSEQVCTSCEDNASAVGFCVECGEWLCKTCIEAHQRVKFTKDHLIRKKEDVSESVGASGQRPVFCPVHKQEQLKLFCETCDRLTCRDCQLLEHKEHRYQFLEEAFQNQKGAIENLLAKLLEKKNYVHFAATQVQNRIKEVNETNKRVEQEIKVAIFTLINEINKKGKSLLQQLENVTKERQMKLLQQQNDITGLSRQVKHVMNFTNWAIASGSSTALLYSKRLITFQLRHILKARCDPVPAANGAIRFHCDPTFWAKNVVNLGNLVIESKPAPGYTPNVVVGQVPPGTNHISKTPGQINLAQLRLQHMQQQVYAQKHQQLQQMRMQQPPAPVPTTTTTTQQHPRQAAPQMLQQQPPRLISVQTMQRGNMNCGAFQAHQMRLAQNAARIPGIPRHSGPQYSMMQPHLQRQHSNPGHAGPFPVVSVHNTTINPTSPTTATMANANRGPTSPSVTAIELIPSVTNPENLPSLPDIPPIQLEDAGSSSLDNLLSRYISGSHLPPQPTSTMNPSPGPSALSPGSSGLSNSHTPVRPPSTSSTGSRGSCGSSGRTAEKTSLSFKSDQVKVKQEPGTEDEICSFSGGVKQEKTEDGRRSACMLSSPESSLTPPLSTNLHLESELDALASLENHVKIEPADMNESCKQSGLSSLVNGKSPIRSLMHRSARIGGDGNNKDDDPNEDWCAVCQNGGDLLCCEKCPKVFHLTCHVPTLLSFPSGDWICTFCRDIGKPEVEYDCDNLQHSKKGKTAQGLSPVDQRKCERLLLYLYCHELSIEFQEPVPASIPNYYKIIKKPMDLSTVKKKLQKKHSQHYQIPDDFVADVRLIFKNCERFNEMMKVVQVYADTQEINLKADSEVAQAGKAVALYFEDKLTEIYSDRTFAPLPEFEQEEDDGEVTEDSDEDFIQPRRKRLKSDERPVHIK

Some of the results follow.

Compound in this experiment: CC1Cc2ccccc2N1C(=O)C1CCCN(C1)C(=O)CCl (mixture of isomers) [TRIM25 ligand 11 (diastereomer mixture)]
Kind of experiment: probe-labelled cysteine peptide fold change vs DMSO (competition) (log2 fold change); higher = less target engagement (more negative = stronger competition). The following applies: THP-1, incubation time: 4 h.
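Further: competitive chemoproteomic profiling in live THP-1 cells with an iodoacetamide desthiobiotin (IA-DTB) probe, comparing probe-labelled peptide intensities in compound-treated cells against DMSO-treated controls.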

For “TRMT1L_Q7Z2T5_189_MGAHYHCIICSATITR (UniProt Q7Z2T5)”, the “probe-labelled cysteine peptide fold change” value reads like this: (10 µM) 0.103; (50 µM) 0.00773.

In the case of “TRMT1L_Q7Z2T5_656_KFLCYLSQAGFR (UniProt Q7Z2T5)”, the “probe-labelled cysteine peptide fold change” value (10 µM) was -0.445 and the “probe-labelled cysteine peptide fold change” value (50 µM) is -0.278.

For the target “TRIM25_Q14258_107_ASAPSPNAQVACDHCLK (UniProt Q14258)”, the “probe-labelled cysteine peptide fold change” value runs as follows: (10 µM) 0.0339; (50 µM) 0.0844.

With TPX2_Q9ULW0_301_GCTIVK (UniProt Q9ULW0), the “probe-labelled cysteine peptide fold change” value (10 µM) turned out to be 0.0992 and the “probe-labelled cysteine peptide fold change” value (50 µM) was determined as 0.152.

Take “TPX2_Q9ULW0_145_CATPVIIDEILPSK (UniProt Q9ULW0)”: the “probe-labelled cysteine peptide fold change” value is -0.077 (10 µM) and -0.276 (50 µM).

Take “TRIM36_Q9NQ86_48+53_ELFTHPLILPCQHSICHK (UniProt Q9NQ86)”: the “probe-labelled cysteine peptide fold change” value is, setting by setting: (10 µM) 0.196; (50 µM) 0.0972.

Turning to “TRAPPC8_Q9Y2L5_548_SALLLEQAAHCFINMK (UniProt Q9Y2L5)”, the “probe-labelled cysteine peptide fold change” value is -0.0807 (10 µM) and 0.0145 (50 µM).

With “TRIP12_Q14669_1411_DCVGGK (UniProt Q14669)”, the “probe-labelled cysteine peptide fold change” value (10 µM) was -0.0858 and the “probe-labelled cysteine peptide fold change” value (50 µM) was -0.148.

With “TRAF7_Q6Q0C0_226_DHEGSCDYRPVR (UniProt Q6Q0C0)”, the “probe-labelled cysteine peptide fold change” value (10 µM) was -0.187 and the “probe-labelled cysteine peptide fold change” value (50 µM) was -0.148.

“TPRKB_Q9Y3C4_13_MQLTHQLDLFPECR (UniProt Q9Y3C4)”: the “probe-labelled cysteine peptide fold change” value (10 µM) was -0.0889 and the “probe-labelled cysteine peptide fold change” value (50 µM) was -0.238.

As to “TRMT1L_Q7Z2T5_419_RHYGCNIVR (UniProt Q7Z2T5)”, the “probe-labelled cysteine peptide fold change” value reads like this: (10 µM) 0.026; (50 µM) 0.249.

With “TRANK1_O15050_1158_NHVLCQEVQR (UniProt O15050)”, the “probe-labelled cysteine peptide fold change” value is, setting by setting: (10 µM) -0.0308; (50 µM) -0.166.

Take “TRAF7_Q6Q0C0_282_YGCTFIGNQDTYETHLETCR (UniProt Q6Q0C0)”: the “probe-labelled cysteine peptide fold change” value reads like this: (10 µM) 0.432; (50 µM) 0.413.

On to “TRAF3IP3_Q9Y228_508_KLQHCR (UniProt Q9Y228)”, for which the “probe-labelled cysteine peptide fold change” value was -0.0651 (10 µM) and -0.0223 (50 µM).

“TRAFD1_O14545_109_EHEDYCGAR (UniProt O14545)”: the “probe-labelled cysteine peptide fold change” value stood at 0.11 (10 µM) and 0.0522 (50 µM).

“TRIM33_Q9UPN9_943_DIGKPEVEYDCDNLQHSK (UniProt Q9UPN9)”: the “probe-labelled cysteine peptide fold change” value runs as follows: (10 µM) -0.0255; (50 µM) -0.0943.

Turning to “TRIP6_Q15654_387_GLDGIPFTVDATSQIHCIEDFHRK (UniProt Q15654)”, the “probe-labelled cysteine peptide fold change” value was 0.112 (10 µM) and -0.158 (50 µM).

With “TRAPPC10_P48553_729_CSHVTLEPGANQITFR (UniProt P48553)”, the “probe-labelled cysteine peptide fold change” value is, setting by setting: (10 µM) -0.0437; (50 µM) -0.0374.

Regarding “TRAF2_Q12933_124_EYESCHEGR (UniProt Q12933)”, the “probe-labelled cysteine peptide fold change” value (10 µM) was determined as 0.147 and the “probe-labelled cysteine peptide fold change” value (50 µM) is -0.19.

In the case of “TRIP12_Q14669-3_77_RSCSSSSAVIVPQPEDPDRANTSER (UniProt Q14669)”, the “probe-labelled cysteine peptide fold change” value (10 µM) was found to be 0.0541 and the “probe-labelled cysteine peptide fold change” value (50 µM) is -0.0788.

“TRAFD1_O14545_93_LAVCQHCDLELSILK (UniProt O14545)”: the “probe-labelled cysteine peptide fold change” value is -0.0682 (10 µM) and -0.0539 (50 µM).

As to “TRIM25_Q14258_174_EFFCPEHSECICHICLVEHK (UniProt Q14258)”, the “probe-labelled cysteine peptide fold change” value reads like this: (10 µM) 0.0464; (50 µM) 0.195.
